Results as given in publication PMC6393609.
Results are given in words; binding and its absence hold for the method and conditions named. Binding seen in cells or lysates may run through a third protein. Some results given as binding are weak or reduced against the parent protein; the word gives no strength.

Molecular target: HA–DCNL1 (human), Q96GG9
Experiment: co-IP; anti-HA immunoprecipitation from lysates of HEK293 cells stably expressing mock, HA-DCNL1, HA-DCNL1 (PONY) or HA-DCNL1-Ub^CT; co-precipitated endogenous proteins by immunoblot
Conditions: remark: other sources report otherwise

B1: CUL2, Q13617 1-745 (protein)
chain: MSLKPRVVDFDETWNKLLTTIKAVVMLEYVERATWNDRFSDIYALCVAYPEPLGERLYTETKIFLENHVRHLHKRVLESEEQVLVMYHRYWEEYSKGADYMDCLYRYLNTQFIKKNKLTEADLQYGYGGVDMNEPLMEIGELALDMWRKLMVEPLQAILIRMLLREIKNDRGGEDPNQKVIHGVINSFVHVEQYKKKFPLKFYQEIFESPFLTETGEYYKQEASNLLQESNCSQYMEKVLGRLKDEEIRCRKYLHPSSYTKVIHECQQRMVADHLQFLHAECHNIIRQEKKNDMANMYVLLRAVSTGLPHMIQELQNHIHDEGLRATSNLTQENMPTLFVESVLEVHGKFVQLINTVLNGDQHFMSALDKALTSVVNYREPKSVCKAPELLAKYCDNLLKKSAKGMTENEVEDRLTSFITVFKYIDDKDVFQKFYARMLAKRLIHGLSMSMDSEEAMINKLKQACGYEFTSKLHRMYTDMSVSADLNNKFNNFIKNQDTVIDLGISFQIYVLQAGAWPLTQAPSSTFAIPQELEKSVQMFELFYSQHFSGRKLTWLHYLCTGEVKMNYLGKPYVAMVTTYQMAVLLAFNNSETVSYKELQDSTQMNEKELTKTIKSLLDVKMINHDSEKEDIDAESSFSLNMNFSSKRTKFKITTSMQKDTPQEMEQTRSAVDEDRKMYLQAAIVRIMKARKVLRHNALIQEVISQSRARFNPSISMIKKCIEVLIDKQYIERSQASADEYSYVA
In the case of B1, the binding is reported as “binds”.
